Reference: US4840785A, “Mammal intestinal hormone precursor and its use” (priority 1985, dated 1989)
Part of at least one peptide drawing is inferred or uncertain, most often the ends. No end group written: not given here.

Tested on: pancreas of the anesthetized cat
Assay: secretin bioassay: stimulation of secretion of alkali in the pancreatic juice in the anesthetized cat
Format: in vivo
Procedure: The biological activity was measured by the ability to stimulate the secretion of alkali in the pancreatic juice in the anesthetized cat (Mutt, v. and Soderberg, U. On the assay of secretin. Ark.Kem. 15, 63-68, 1959). The sample was compared to a secretin standard with an established activity of 3500 units per mg. […] Proteolytic fragmentation

HSDGTFTSELSRLRDSARLQRLLQGLVGKR [Secretin variant, secretin-Gly-Lys-Arg]
ALKALI SECRETED (Cat. 1, dose 21.5 pmole): 124 μequiv.
ALKALI SECRETED per dose (Cat. 1, dose 21.5 pmole): 5.8 μequiv.pmole
ALKALI SECRETED (Cat. 1, dose 43 pmole): 160 μequiv.
ALKALI SECRETED per dose (Cat. 1, dose 43 pmole): 3.7 μequiv.pmole
ALKALI SECRETED (Cat. 2, dose 30 pmole): 105 μequiv.
ALKALI SECRETED per dose (Cat. 2, dose 30 pmole): 3.5 μequiv.pmole
ALKALI SECRETED (Cat. 2, dose 60 pmole): 152 μequiv.
ALKALI SECRETED per dose (Cat. 2, dose 60 pmole): 2.5 μequiv.pmole
potency relative to secretin itself (secretin bioassay, Table 3): about 1.5 times
